The values below come from ChEMBL document CHEMBL1938276, “Design and synthesis of 2-heterocyclyl-3-arylthio-1H-indoles as potent tubulin polymerization and cell growth inhibitors with improved metabolic stability” (J Med Chem, 2011).

The experiment has as its system MCF7. As to the kind of experiment: Growth inhibition of human MCF7 cells after 96 hrs. In kind it is functional, cell-based. As to conditions: MCF7, 96 h.

pIC50: −log10 of the molar value.

Turning to `COc1cc2c(c(OC)c1OC)-c1ccc(OC)c(=O)cc1[C@@H](NC(C)=O)CC2` [COLCHICINE], the pIC50 was 8.30.
